Source: patent US20170348398A1, “COMPOSITIONS AND METHODS FOR DECREASING BLOOD GLUCAGON LEVELS” (Vanderbilt University, priority 2016, published 2017)
At least one compound was matched to its structure with a doubt left.

Legend:
mice = test: treatment of mice with Gcgr mAb with or without rapamycin; type: in vivo, mouse
α-cells = test: in vitro α-cell proliferation assay (cultured mouse islets, cytospin, Ki67+ glucagon+ counting); type: cell-based
Excerpt: To maximize the ability to quantify proliferating α-cells intact mouse islets were first cultured in media supplemented with Gcgr−/− or Gcgr+/+ mouse serum, dispersing the islets into cells, and then the cells centrifuged into a focused monolayer of cells using a cytospin centrifuge (FIG. 1A). […] To further maximize the throughput of this assay, a cytonuclear algorithm was developed to automate quantification of α-cell proliferation in cytospin islet images (FIG. 7C).
Pancreatic islets were isolated from male 8-14 week old C57B16/J mice (Jackson Laboratory, ME) and cultured in various media conditions for 3 days. […] For complete amino acid content in each media condition, see Table 1. For serum fractionation, serum was centrifuged for 1 hour at 2000×g at room temperature in a 10 kDa molecular weight cutoff spin column (Millipore, Billerica, Mass.). […]
Cytospin slides were imaged using a Leica Microsystems Epifluorescent Microscope DM1 6000B. Tiled images were analyzed by a cytonuclear algorithm developed using the […] Software package (Indica Labs) (FIG. 7A). […] Colocalization was determined by coregistering glucagon pseudospots with Ki67 spots. […] For all islet culture experiments, a minimum of 500 α-cells counted per replicate (i.e. n=1) were required to be included in an experiment.

[1] = system: GcgR1−/−R2−/− zebrafish larvae; test: zebrafish model of interrupted glucagon signaling, α-cell number in the primary islet; type: in vivo; details: larvae exposed to 2.5 uM rapamycin for 3 days from dpf 4
[2] = cotreatment with rapamycin 0.2 mg/kg every 3 days for 2 weeks

Compound: CO[C@H]1C[C@@H]2CC[C@@H](C)[C@@](O)(O2)C(=O)C(=O)N2CCCC[C@H]2C(=O)O[C@H]([C@H](C)C[C@@H]2CC[C@@H](O)[C@H](OC)C2)CC(=O)[C@H](C)/C=C(\C)[C@@H](O)[C@@H](OC)C(=O)[C@H](C)C[C@H](C)/C=C/C=C/C=C/1C [rapamycin]
- α-cell expression of pS6 (p235/236) (mice; Gcgr mAb cotreated mice, rapamycin): largely attenuated
- GCGR mAb-induced increase of SLC38A5 expression in α-cells (mice; co-treatment with rapamycin): mitigated
- hyperglucagonemia induced by Gcgr mAb administration (mice; [2]): partially suppressed
- α-cell proliferation induced by Gcgr mAb administration (mice; [2]): partially suppressed
- α-cell proliferation in response to high amino acid containing media (α-cells; 30 nM rapamycin added to highest amino acid media, 3 days culture): blocked increased α-cell proliferation
- α-cell proliferation induced by Gcgr−/− mouse serum (α-cells; mouse islets cultured with Gcgr−/− mouse serum in the presence of rapamycin): blocked the proliferative effects
- number of α-cells induced by interruption of glucagon signaling [1]: reduced the number of α-cells
